In PubChem BioAssay AID540276 (National Center for Advancing Translational Sciences (NCATS), 2011):
The whole screen tested about 300,000 compounds, of which about 5,400 (1.8%) were called active. This list was built around the results that the source calls inconclusive (neither active nor inactive); the mix of calls is not that of the screen. Calls follow the shape of the full dose curve; tested in HEK293 cells. A potency beside an inconclusive call is a rough fit, not a confirmed value.
Potency is read from the fitted curve at half-maximal effect.

Test: qHTS for inhibitors of binding or entry into cells for Marburg Virus
Conditions: Marburg virus pseudotyped entry inhibition, cell reporter; series mostly up to 37.8 µM
In the case of `CCC(C)NC(=O)CN1C(=O)NC2(CCOc3ccccc32)C1=O` (centres undefined), the Potency is reported as “inactive”.
With `CCOC(=O)N1CCN(c2ncnc3c2[nH]c2ccc(F)cc23)CC1` the Potency was inconclusive: 14.1 µM [inhibitor, single point].
In the case of `O=C(NCCc1ccccn1)c1cccc(S(=O)(=O)N2CCCCCC2)c1`, the Potency is reported as inconclusive: 14.1 µM [inhibitor, partial curve, poor fit].
For `CCN(C(=O)c1nn(-c2ccc(OC)c(Cl)c2)c(=O)c2c1c1ccccc1n2C)c1cc(OC)ccc1OC`, the Potency was inconclusive: 20 µM [inhibitor, single point].
With `CC(C)(CO)NCC(O)Cn1cc(C=O)c2ccccc21` (centres undefined) the Potency was “inactive”.
In the case of `Cc1nc(=O)c(-c2ccccc2)c(C)n1-c1ccccc1C(=O)O`, the Potency is reported as inconclusive: 3.66 µM [activator, single point].
With `CCN1/C(=C\C=C2\C(=O)N(c3ccccc3)C(=S)N2C)Sc2ccccc21` the Potency was “inactive”.
With `S=C(c1ccc(-c2ccc(Cl)c(Cl)c2)o1)N1CCOCC1` the Potency was “inactive”.
With `COc1ccc(N2CCN(C(=O)Cn3ncc4c3-c3cc(C)ccc3OC4)CC2)cc1` the Potency was inconclusive: 17.8 µM [inhibitor, single point].
In the case of `Cc1ccc(C)c(NC(=S)Nc2ncccc2C)c1`, the Potency is reported as “inactive”.
With `COc1cccc(C(=O)Nc2ccc(C)cc2)c1` the Potency was inconclusive: 0.517 µM [activator, partial curve].
With `COc1ccc(N2C(=O)CC2(C#N)c2ccc(OCc3ccccc3)cc2)cc1` (centres undefined) the Potency was inconclusive: 35.5 µM [activator, single point].
In the case of `COc1cccc(CN(C)CC(=O)Nc2cc3oc4ccccc4c3cc2OC)c1`, the Potency is reported as inconclusive: 11.2 µM [inhibitor, single point].
With `Clc1ccc2nc(C3CCN(Cc4nnnn4C4CCCCC4)CC3)[nH]c2c1` the Potency was inconclusive: 5.8 µM [inhibitor, partial curve, poor fit].
In the case of `CN(Cc1nc(-c2cccnc2)no1)S(=O)(=O)c1ccccc1`, the Potency is reported as “inactive”.
For `Cc1oc(-c2ccccc2F)nc1CS(=O)(=O)CC(=O)N1CCN(c2cccc(C(F)(F)F)c2)CC1`, the Potency was inconclusive: 35.5 µM [inhibitor, single point].
For `COc1ccccc1C(c1nnnn1C(C)(C)C)N1CCN(C(=O)c2ccco2)CC1` (centres undefined), the Potency was inconclusive: 35.5 µM [activator, single point].
In the case of `NC(=O)c1nsc(C(=O)N(Cc2ccc(F)cc2)C(C(=O)NCC2CCCO2)c2ccc(F)cc2)c1N` (centres undefined), the Potency is reported as active: 11.2 µM.
For `CCn1c(NN=O)nc2ccccc21`, the Potency was inconclusive: 10 µM [inhibitor, partial curve, poor fit].
For `C=CCNC(=O)COC(=O)c1ccc(C)c(NC(=O)c2ccco2)c1`, the Potency was inconclusive: 3.16 µM [activator, partial curve, poor fit].
With `COc1ccc(NC(=O)c2sc3nc(C)c(C(=O)Nc4ccc(C)cc4C)c(-c4ccc(Cl)cc4)c3c2N)cc1` the Potency was “inactive”.
In the case of `O=C(N/N=C/c1cccnc1)c1ccco1`, the Potency is reported as “inactive”.
In the case of `O=C(c1cnc(-c2ccccc2)s1)c1ccc(Cl)cc1Cl`, the Potency is reported as “inactive”.
For `Cc1c(C(=O)NCc2ccc3c(c2)OCO3)oc2ccccc12`, the Potency was inconclusive: 29.1 µM [inhibitor, single point].
With `N#CCSc1ccccc1NC(=O)COC(=O)CCNC(=O)c1ccc([N+](=O)[O-])cc1` the Potency was inconclusive: 0.224 µM [inhibitor, full curve, poor fit].
For `CC(C)(C)NC(=O)CSc1nnc(CN2CCCCCC2=O)n1-c1ccccn1`, the Potency was inconclusive: 0.082 µM [inhibitor, partial curve, poor fit].
In the case of `CCC1CCCCN1CCCNC(=O)c1cn(CC)c2ccc(S(=O)(=O)N3CCc4ccccc4C3)cc2c1=O` (centres undefined), the Potency is reported as inconclusive: 35.5 µM [inhibitor, single point].
With `O=C(CSc1nnc(-c2ccc([N+](=O)[O-])cc2)o1)Nc1ccccn1` the Potency was inconclusive: 3.66 µM [inhibitor, full curve].
With `CCOC(=O)N1CCC(NCCNC(=O)c2ccc(Cl)cc2)CC1` the Potency was inconclusive: 11.6 µM [inhibitor, partial curve].
In the case of `Cc1ccc(C(=O)N2CC(=O)Nc3ccc(F)cc3C2c2ccc(F)cc2)cc1[N+](=O)[O-]` (centres undefined), the Potency is reported as inconclusive: 35.5 µM [inhibitor, single point].
In the case of `COC(=O)c1ccccc1NC1=C/C(=N\S(=O)(=O)c2cccs2)c2ccccc2C1=O`, the Potency is reported as active: 3.66 µM.
With `Clc1ccc(-c2noc(CN(Cc3ccccn3)CC3CCCO3)n2)cc1` (centres undefined) the Potency was inconclusive: 35.5 µM [activator, single point].
For `O=C1C=CC(=O)N1CCCCCCCCCCN1C(=O)C=CC1=O`, the Potency was inconclusive: 17.8 µM [inhibitor, partial curve, poor fit].
With `O=S(=O)(Nc1ccc(N2CCCCC2)cc1)c1ccc(F)cc1F` the Potency was “inactive”.
With `COC(=O)c1cc2c(N)c(C(=O)c3ccccc3)sc2nc1C(OC)OC` the Potency was “inactive”.
For `CC(C)NC(=O)c1ccc(CSCc2ccccc2Cl)o1`, the Potency was inconclusive: 15.8 µM [inhibitor, single point].
With `CC(C)(C)NS(=O)(=O)c1ccc(NC(=O)C2CC(=O)N(CCc3ccc(F)cc3)C2)cc1` (centres undefined) the Potency was “inactive”.
For `CC(Nc1cc(N2CCN(S(=O)(=O)N(C)C)CC2)ccc1[N+](=O)[O-])c1ccccc1` (centres undefined), the Potency was inconclusive: 28.2 µM [inhibitor, partial curve, poor fit].
With `COc1ccc(C2C3=C(CCCC3=O)NC3=C2C(=O)c2ccccc23)cc1` (centres undefined) the Potency was inconclusive: 8.91 µM [inhibitor, partial curve, poor fit].
With `O=C(NCc1ccco1)Nc1ccc2nsnc2c1` the Potency was inconclusive: 12.6 µM [inhibitor, partial curve, poor fit].
With `O=C(NC(NC(=S)Nc1ccccc1C(=O)O)C(Cl)(Cl)Cl)c1ccco1` (centres undefined) the Potency was “inactive”.
For `CCc1ccc(NC(=O)C2CCN(c3nnc(-n4c(C)ccc4C)s3)CC2)cc1`, the Potency was “inactive”.
In the case of `Cc1ccccc1NCC(=O)N/N=C\c1ccc2c(c1)OCO2`, the Potency is reported as “inactive”.
In the case of `COc1ccc(CC(=O)O/N=C(\N)Cc2cccc3ccccc23)cc1OC`, the Potency is reported as “inactive”.
In the case of `O=C(NCCCN1CCN(CCCNC(=O)c2ccc3c(c2)OCO3)CC1)c1ccc2c(c1)OCO2`, the Potency is reported as inconclusive: 5.62 µM [activator, single point].
In the case of `CC1CCCCN1CCNC(=O)C1CCCN(c2ncnc3c2nc2n3CCCCC2)C1` (centres undefined), the Potency is reported as inconclusive: 10 µM [inhibitor, partial curve, poor fit].
With `OCC1(Cc2ccc(Cl)cc2)CCN(Cc2ccc3nsnc3c2)CC1` the Potency was inconclusive: 35.5 µM [inhibitor, single point].
In the case of `Cc1ccc(-n2ncc3c2ncn2nc(-c4ccco4)nc32)c(C)c1`, the Potency is reported as inconclusive: 35.5 µM [inhibitor, single point].
In the case of `OC1CCCN(c2ncnc3c2nnn3Cc2c(F)cccc2Cl)C1` (centres undefined), the Potency is reported as active: 10 µM.
For `O=C(c1ccncc1)N1CCN(C2CCC(c3ccccc3)CC2)CC1` (centres undefined), the Potency was inconclusive: 3.16 µM [activator, partial curve, poor fit].
In the case of `Cc1cccc(NC(=O)c2ccc(-n3ccnc3)nc2)c1`, the Potency is reported as inconclusive: 8.2 µM [activator, partial curve, poor fit].
For `CCCCCCN1CC(O)=C(c2nc3ccccc3[nH]2)C1=N`, the Potency was “inactive”.
For `CC1CCCC(C)N1C(=O)c1ccc2c(c1)S(=O)(=O)c1ccccc1C2=O` (centres undefined), the Potency was “inactive”.
In the case of `O=C(NNc1nc2c(F)cc(F)cc2s1)c1ccccc1`, the Potency is reported as inconclusive: 3.55 µM [activator, single point].
With `Cc1cc(/C=N\NC(=O)CC(=O)NC2CCCCC2)c(C)n1-c1cccc(Cl)c1Cl` the Potency was inconclusive: 0.206 µM [inhibitor, single point].
With `O=C(O)c1cc2cc(F)ccc2[nH]1` the Potency was inconclusive: 5.17 µM [activator, full curve, poor fit].
With `O=C(c1ccc2c(c1)OCO2)N1CCN(c2ccccc2)CC1` the Potency was “inactive”.
With `CCCC1(C(=O)OCC)NC(c2ccc(OC)cc2OC)C2C(=O)N(c3ccccc3)C(=O)C21` (centres undefined) the Potency was inconclusive: 0.447 µM [activator, single point].
For `O=C1CCC(C(=O)NCCN2C(=O)S/C(=C\c3cccnc3)C2=O)=NN1`, the Potency was inconclusive: 2.24 µM [inhibitor, single point].
For `CN1CCN(c2cc(N3CCc4ccccc4C3)c(F)cc2[N+](=O)[O-])CC1`, the Potency was inconclusive: 20 µM [inhibitor, single point].
For `COc1ccc(CNC(=O)C2CCC(CNS(=O)(=O)c3cccs3)CC2)cc1` (centres undefined), the Potency was inconclusive: 35.5 µM [inhibitor, single point].
In the case of `Cc1c(C(=O)NC2=NCCS2)cccc1[N+](=O)[O-]`, the Potency is reported as “inactive”.
In the case of `COc1cccc(CN(C)C(=O)CNC(=O)c2ccc(-c3ccccc3)cc2)c1OC`, the Potency is reported as inconclusive: 14.1 µM [inhibitor, partial curve, poor fit].
For `CCOc1ccc(Nc2nc(C)c(NC(=O)c3cccc(OC)c3)c(Nc3ccc(OCC)cc3)n2)cc1`, the Potency was active: 11.2 µM.
For `CCCOc1ccc2ccccc2c1/C=N/n1cnnc1`, the Potency was “inactive”.
In the case of `CC1CCCC(C)N1C(=O)c1cc(-c2ccc(Cl)c(Cl)c2)on1` (centres undefined), the Potency is reported as “inactive”.
With `Cc1nn(C)c(Cl)c1CN1CCC(CO)(CCOc2ccccc2)CC1` the Potency was inconclusive: 1 µM [inhibitor, partial curve, poor fit].
For `COc1cc(N2CCCC2)ccc1[N+](=O)[O-]`, the Potency was inconclusive: 0.112 µM [activator, full curve, poor fit].
In the case of `CCCCCn1c(N2CCN(Cc3ccccc3)CC2)nc2c1c(=O)[nH]c(=O)n2C`, the Potency is reported as “inactive”.
